Reference: article PMC11443525
These are yes or no findings as the source states them, for the method shown. In cells and extracts the contact can be indirect. Binding calls can cover weak binding; strength is not graded here. Where a sequence is shown, tags or fusion partners need not be part of it.

Amino acid sequences for entries named in this document (tags omitted). A change or cut given only in a name is not applied to a line headed by its entry.
UniProt Q13467: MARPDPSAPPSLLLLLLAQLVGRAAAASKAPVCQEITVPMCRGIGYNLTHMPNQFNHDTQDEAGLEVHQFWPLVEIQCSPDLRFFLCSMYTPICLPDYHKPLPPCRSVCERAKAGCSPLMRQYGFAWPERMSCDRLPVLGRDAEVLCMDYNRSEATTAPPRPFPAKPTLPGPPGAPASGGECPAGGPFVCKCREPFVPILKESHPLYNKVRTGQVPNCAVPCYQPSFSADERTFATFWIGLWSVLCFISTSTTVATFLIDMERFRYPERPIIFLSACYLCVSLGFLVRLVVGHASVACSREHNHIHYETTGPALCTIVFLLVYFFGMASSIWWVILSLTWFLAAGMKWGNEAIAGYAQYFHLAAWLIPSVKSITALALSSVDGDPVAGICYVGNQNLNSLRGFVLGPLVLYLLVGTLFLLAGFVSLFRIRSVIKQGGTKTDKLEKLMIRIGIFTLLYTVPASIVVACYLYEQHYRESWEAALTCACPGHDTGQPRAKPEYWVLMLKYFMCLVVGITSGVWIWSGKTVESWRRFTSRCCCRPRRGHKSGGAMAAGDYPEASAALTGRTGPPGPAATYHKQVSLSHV
UniProt O60353: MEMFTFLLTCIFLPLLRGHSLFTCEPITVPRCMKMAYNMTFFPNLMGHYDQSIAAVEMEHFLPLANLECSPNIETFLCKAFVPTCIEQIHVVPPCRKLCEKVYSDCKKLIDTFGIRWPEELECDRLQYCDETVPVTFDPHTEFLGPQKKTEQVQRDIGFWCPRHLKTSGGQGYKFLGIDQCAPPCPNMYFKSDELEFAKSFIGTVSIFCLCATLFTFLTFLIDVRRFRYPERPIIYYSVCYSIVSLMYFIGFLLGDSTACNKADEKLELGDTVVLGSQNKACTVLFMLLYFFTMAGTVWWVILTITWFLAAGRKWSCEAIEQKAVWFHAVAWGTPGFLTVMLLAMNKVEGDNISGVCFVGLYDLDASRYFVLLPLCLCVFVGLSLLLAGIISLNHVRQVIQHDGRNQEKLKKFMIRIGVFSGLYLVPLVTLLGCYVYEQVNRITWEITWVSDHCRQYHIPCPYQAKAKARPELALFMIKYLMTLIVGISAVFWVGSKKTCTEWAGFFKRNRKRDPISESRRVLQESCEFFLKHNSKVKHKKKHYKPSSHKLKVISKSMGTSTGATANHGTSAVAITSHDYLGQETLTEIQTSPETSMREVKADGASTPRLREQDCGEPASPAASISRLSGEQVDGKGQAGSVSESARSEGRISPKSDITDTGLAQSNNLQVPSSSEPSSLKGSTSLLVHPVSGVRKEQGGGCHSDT

Key:
[1] = target: FZD5 lacking the extracellular CRD (in the FZD5-DEP-Clamp lacking the CRD) (UniProt Q13467); experiment: FRET or BRET; basal interaction of FZD5 lacking the CRD with DEP (Figure S4B–F); whether by titration or in the unimolecular sensor is not told in the text shown
FZD6 Δ559-Nluc = FZD6 Δ559-Nluc (UniProt O60353); experiment: FRET or BRET; BRET acceptor titration in living HEK293A cells: fixed amount of FZDx-Nluc or mSMO-Nluc plasmid (donor), increasing DEP-mVenus plasmid (acceptor); no ligand; HBSS, coelenterazine h 5 μM

B1: mVenus-tagged isolated DEP domain of human DVL2 (domain or fragment, UniProt O14641 433-507)
chain: PESGLEVRDRMWLKITIPNAFLGSDVVDWLYHHVEGFPERREARKYASGLLKAGLIRHTVNKITFSEQCYYVFGD
B1 was tested, and the binding [1] was “binds” and the binding (FZD6 Δ559-Nluc) was “binds”.
